Assay results taken from paper PMC9978635.
Read-outs that look alike come from different tables or passages of the source. These are yes or no findings as the source states them, for the method shown. Binding seen in cells or lysates may run through a third protein. Here binding means that the protein was enriched with, or labelled near, the bait; the list need not be complete. For some assays here: No binding means not detected with the bait.

Protein sequences, listed by entry. Tags and fused reporters are not part of them. Lines headed by an entry give the natural chain unless they say otherwise; changes in a name come on top. Chains listed by the source or under a name are the forms on record and can include a tag or linker. Residues count along the entry.
0N4R tau[WT]-BioID2 (P10636, form named): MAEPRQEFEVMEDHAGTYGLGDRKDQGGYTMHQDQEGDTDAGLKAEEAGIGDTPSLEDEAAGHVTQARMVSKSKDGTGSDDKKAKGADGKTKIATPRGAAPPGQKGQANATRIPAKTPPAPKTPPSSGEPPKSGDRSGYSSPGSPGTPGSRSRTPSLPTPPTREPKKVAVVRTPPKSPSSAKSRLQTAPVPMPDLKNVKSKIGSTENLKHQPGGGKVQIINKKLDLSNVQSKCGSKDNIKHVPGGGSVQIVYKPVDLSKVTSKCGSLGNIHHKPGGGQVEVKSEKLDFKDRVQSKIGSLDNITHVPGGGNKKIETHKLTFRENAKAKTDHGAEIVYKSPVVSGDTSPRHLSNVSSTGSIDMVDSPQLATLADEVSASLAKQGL
UniProt Q99497: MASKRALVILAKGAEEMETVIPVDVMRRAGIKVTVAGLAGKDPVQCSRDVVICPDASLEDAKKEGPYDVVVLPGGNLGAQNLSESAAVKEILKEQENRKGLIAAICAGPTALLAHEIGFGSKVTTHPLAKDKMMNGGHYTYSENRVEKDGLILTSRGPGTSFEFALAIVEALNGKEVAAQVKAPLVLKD
UniProt O00217, residues 35-210: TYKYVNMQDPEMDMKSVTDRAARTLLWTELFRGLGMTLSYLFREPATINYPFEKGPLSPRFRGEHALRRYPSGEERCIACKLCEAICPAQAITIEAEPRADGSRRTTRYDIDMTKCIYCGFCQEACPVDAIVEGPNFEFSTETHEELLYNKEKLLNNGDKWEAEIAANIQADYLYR
UniProt P11137: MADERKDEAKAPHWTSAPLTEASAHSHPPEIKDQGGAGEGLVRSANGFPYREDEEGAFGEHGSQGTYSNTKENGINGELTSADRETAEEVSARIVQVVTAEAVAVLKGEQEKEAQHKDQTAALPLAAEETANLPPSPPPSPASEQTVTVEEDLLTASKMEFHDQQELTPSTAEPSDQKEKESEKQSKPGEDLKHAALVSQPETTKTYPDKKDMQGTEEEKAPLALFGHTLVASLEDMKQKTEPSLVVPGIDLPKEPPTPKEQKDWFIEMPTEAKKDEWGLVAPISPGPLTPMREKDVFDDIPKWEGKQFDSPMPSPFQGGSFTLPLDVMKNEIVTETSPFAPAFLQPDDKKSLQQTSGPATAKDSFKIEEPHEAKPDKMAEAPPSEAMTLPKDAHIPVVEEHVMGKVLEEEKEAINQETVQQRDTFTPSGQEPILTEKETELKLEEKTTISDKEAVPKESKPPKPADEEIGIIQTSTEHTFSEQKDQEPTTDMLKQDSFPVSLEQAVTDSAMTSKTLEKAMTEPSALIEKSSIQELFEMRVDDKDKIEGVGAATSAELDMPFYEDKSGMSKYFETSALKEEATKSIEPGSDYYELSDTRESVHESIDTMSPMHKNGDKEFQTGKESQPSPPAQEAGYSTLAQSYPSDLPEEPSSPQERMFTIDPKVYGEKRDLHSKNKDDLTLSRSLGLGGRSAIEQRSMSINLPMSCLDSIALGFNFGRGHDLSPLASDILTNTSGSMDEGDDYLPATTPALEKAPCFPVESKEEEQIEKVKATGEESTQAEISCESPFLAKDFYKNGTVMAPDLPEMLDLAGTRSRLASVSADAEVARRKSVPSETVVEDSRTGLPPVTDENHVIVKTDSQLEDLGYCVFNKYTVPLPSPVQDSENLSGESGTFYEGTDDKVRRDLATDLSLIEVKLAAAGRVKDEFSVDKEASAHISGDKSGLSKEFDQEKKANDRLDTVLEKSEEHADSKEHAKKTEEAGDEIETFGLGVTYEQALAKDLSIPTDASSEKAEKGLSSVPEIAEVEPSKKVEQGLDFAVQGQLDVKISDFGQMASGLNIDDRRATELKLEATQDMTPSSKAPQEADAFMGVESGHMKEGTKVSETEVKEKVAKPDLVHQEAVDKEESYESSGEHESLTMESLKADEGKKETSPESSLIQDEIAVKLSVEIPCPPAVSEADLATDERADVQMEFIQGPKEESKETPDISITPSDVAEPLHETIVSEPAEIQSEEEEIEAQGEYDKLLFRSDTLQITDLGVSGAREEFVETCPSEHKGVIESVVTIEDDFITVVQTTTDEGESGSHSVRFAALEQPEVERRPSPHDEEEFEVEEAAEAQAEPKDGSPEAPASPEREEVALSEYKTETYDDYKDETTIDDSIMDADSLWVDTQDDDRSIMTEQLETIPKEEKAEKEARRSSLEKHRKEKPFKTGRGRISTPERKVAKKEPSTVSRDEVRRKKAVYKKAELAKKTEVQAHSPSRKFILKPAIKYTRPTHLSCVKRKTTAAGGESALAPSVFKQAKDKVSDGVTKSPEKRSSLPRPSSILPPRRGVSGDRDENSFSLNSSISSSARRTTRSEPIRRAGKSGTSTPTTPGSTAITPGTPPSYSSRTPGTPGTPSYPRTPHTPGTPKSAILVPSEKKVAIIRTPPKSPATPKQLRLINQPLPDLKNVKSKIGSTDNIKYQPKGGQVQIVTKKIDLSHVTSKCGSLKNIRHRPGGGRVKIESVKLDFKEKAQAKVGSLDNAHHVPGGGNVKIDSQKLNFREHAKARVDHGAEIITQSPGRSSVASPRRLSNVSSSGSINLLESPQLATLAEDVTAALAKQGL

B1: 14-3-3θ (protein, UniProt P27348 1-245)
chain: MEKTELIQKAKLAEQAERYDDMATCMKAVTEQGAELSNEERNLLSVAYKNVVGGRRSAWRVISSIEQKTDTSDKKLQLIKDYREKVESELRSICTTVLELLDKYLIANATNPESKVFYLKMKGDYFRYLAEVACGDDRKQTIDNSQGAYQEAFDISKKEMQPTHPIRLGLALNFSVFYYEILNNPELACTLAKTAFDEAIAELDTLNEDSYKDSTLIMQLLRDNLTLWTSDSAGEECDAAEGAEN

Tests used:
Assay in all cases: proximity labelling; BioID2 fused to the C terminus of the bait in hESC-derived NGN2 neurons; K18[P301L] fibrils, α-synuclein PFFs (50 μg/dish) or PBS; 50 μM biotin for 24 h, added with the fibrils or 3 weeks later; lysis in 8 M urea, streptavidin magnetic beads, on-bead trypsin, TMT10plex LC-MS; interactor: ≥1.5-fold more abundant than in both BioID2-only controls
0N4R tau[WT]-BioID2 [1] = target: 0N4R tau[WT]-BioID2 (UniProt P10636)
0N4R tau[P301L]-BioID2 = target: 0N4R tau[P301L]-BioID2
0N4R tau[WT]-BioID2 [2] = target: 0N4R tau[WT]-BioID2 (UniProt P10636); remark: listed apart in the source

Molecule | binding (0N4R tau[WT]-BioID2 [1]) | binding (0N4R tau[P301L]-BioID2) | binding (0N4R tau[WT]-BioID2 [2])
DJ-1 (Parkinsonism-associated deglycase) (from UniProt Q99497 1-189) | no binding |  | 
NADH:ubiquinone oxidoreductase core subunit S8 (from UniProt O00217 35-210) | binds |  | 
microtubule-associated protein 2 (from UniProt P11137 1-1827) | binds |  | 
B1 |  | binds | no binding
